Measurements taken from patent publication US7297515 (MYRIAD GENETICS, dated 2007).

Target: T1, zinc finger protein 202, alt. transcript beta (ZNF202b), bait fragment amino acids 1-398 (human, UniProt P04386 1-147; O95125 1-398)
T1 construct: also called ZNF202beta; ZNF202 m1
Experiment: yeast two-hybrid search, bait ZNF202 1-398
From the text: The new construct was selected directly in the yeast strain PNY200 for its ability to drive tryptophane synthesis (genotype of this strain: MATα trp1-901 leu2-3, 112 ura3-52 his3-200 ade2 gal4Δ gal80). In these yeast cells, the bait was produced as a C-terminal fusion protein with the DNA binding domain of the transcription factor Gal4 (amino acids 1 to 147). Prey libraries were transformed into the yeast strain BK100 (genotype of this strain: MATa trp1-901 leu2-3,112 ura3-52 his3-200 gal4Δ gal80 LYS2::GAL-HIS3 GAL2-ADE2 met2::GAL7-lacZ), and selected for the ability to drive leucine synthesis. In these yeast cells, each cDNA was expressed as a fusion protein with the transcription activation domain of the transcription factor Gal4 (amino acids 768 to 881) and a 9 amino acid hemagglutinin epitope tag. PNY200 cells (MATα mating type), expressing the bait, were then mated with BK100 cells (MATa mating type), expressing prey proteins from a prey library. The resulting diploid yeast cells expressing proteins interacting with the bait protein were selected for the ability to synthesize tryptophan, leucine, histidine, and adenine. […]

B1: novel protein PN1851, fragment residues 14-369 (other, not shown: small tags and cut ends)
chain: ANFNQSGNIADSSLSFTFTNSSNGPNLITTQTNSQALSQPIASSNVHDNFMNNEITASKIDDGNNSKPLSPGWTDQTAYNAFGITTGMFNTTTMDDVYNYLFDDEDTPPNPKKEQPEPEELLIVKLEEDSWGSESKLWEKDRGSVSGPEASRQRFRQFQYRDAAGPHEAFGQLWALCCRWLRPEIRLKEQILELLVLEQFLTILPREVQTWVQARHPESGEEAVALVEDWHRETRTAGQSGLELHTEETRPLKTGEEAQSFQLEPVDPWPEGQSQKKGVKNTCPDLPNHLNAEVAPQPLKESAVLTPRVPTLPKMGSVGDWEVTAESQEALGPGKHAEKELCKDPPGDDCGNSVCLGVPVSKPSNTSEKEQGPEFWGLSLINSGKRSTADYSLDNEPAQALTWRDSRAWEEQYQWDVEDMKVSGVHWGYEETKTFLAILSESPFSEKLRTCHQNRQVYRAIAEQLRARGF
notes: range 768-881
- binding result: binds
